# Test results from PubChem BioAssay AID624291 (National Center for Advancing Translational Sciences (NCATS), 2012).
# About 220 (0.063%) of roughly 350,000 compounds were called active. The shares of active, inactive and inconclusive entries below differ from those in the screen. Calls follow the shape of the dose curve; as a rule, active = well fitted activation curve with a large enough effect; inconclusive = small, poorly fitted or top-dose-only effect; inactive = no such curve, though single readings can be large or run the other way. A potency beside an inconclusive call is a rough fit, not a confirmed value.
# Assay: qHTS for Activators of Integrin-Mediated Alleviation for Muscular Dystrophy; also: nearly all actives have a fitted effect of over 60% in size
# Conditions: alpha7betagal myoblasts, beta-gal FDG fluorescence, 48 h; series mostly up to 38.3 µM
# Procedure, shortened: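 Alpha7betagal+/- myoblasts (passage 13) were plated 16-24 hr, then exposed to compounds (1:260 dilution of DMSO stock) for 48 hours at 37C. After MPER lysis, β-galactosidase reporter activity was read as FDG fluorescence (ex 480/em 540) after 30 minutes.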
# Potency is read from the fitted curve at half-maximal effect.
row,SMILES,Potency
1,C=CCOC(=O)C1=C(C)N=c2s/c(=C3\C(=O)N(CC(=O)O)c4ccccc43)c(=O)n2C1c1ccc(OC)cc1 (stereo not drawn),"inconclusive: 12.6 µM [activator, partial curve, poor fit]"
2,CNC(=O)N1c2ccccc2CCc2ccccc21,"inconclusive: 0.501 µM [activator, full curve, poor fit]"
3,O=c1c2ccccc2sn1-c1nccs1,inactive
4,O=C(O)CSc1nnc(-c2ccncc2)n1-c1ccc(Cl)cc1,"inconclusive: 25.1 µM [activator, single point]"
5,O=C(O)/C=C/c1cccnc1,"inconclusive: 28.2 µM [activator, single point]"
6,COc1cccc(CN2C(=NC(=O)C3CC3)SC3CS(=O)(=O)CC32)c1 (stereo not drawn),"inconclusive: 5.62 µM [activator, partial curve, poor fit]"
7,Cc1[nH]n(-c2ccccc2)c(=O)c1N=Nc1ccccc1C(=O)N1CCCCC1,"inconclusive: 2.82 µM [activator, single point]"
8,COC(=O)C1CCN(C(=O)c2cc(=O)[nH]c3ccccc23)CC1,"inconclusive: 5.01 µM [activator, single point]"
9,COc1ccc(Br)cc1CN(C)C(=O)c1cnc(C)cn1,"inconclusive: 2.24 µM [activator, partial curve, poor fit]"
10,CCOC(=O)C1C(=O)NC(N2CCOCC2)=NC1C(C)C (stereo not drawn),"inconclusive: 2.82 µM [activator, single point]"
11,CC(CC(=O)Nc1ccccc1)n1ccnc1 (stereo not drawn),"inconclusive: 12.6 µM [activator, single point]"
12,C/C(=N\NC(=O)c1ccc2c(c1)OCO2)c1cccnc1,inactive
13,O=C(NCCCO)/C(=C\c1cn(-c2ccccc2)nc1-c1cccnc1)NC(=O)c1ccccc1,"inconclusive: 28.2 µM [activator, single point]"
14,O=[N+]([O-])c1cc(Cl)cc(/C=N/NC(=S)Nc2cc(S(=O)(=O)N3CCOCC3)ccc2Cl)c1O,"inconclusive: 2.51 µM [activator, single point]"
15,O=C(NC1CCCC1)C(c1ccco1)N(C(=O)c1ccco1)c1ccc(F)cc1 (stereo not drawn),"inconclusive: 0.891 µM [activator, partial curve, poor fit]"
16,COc1cccc(-c2noc(CCC(=O)NCC3CCCO3)n2)c1 (stereo not drawn),"inconclusive: 5.01 µM [activator, single point]"
17,CCN(CC)CC(O)Cn1c(-c2ccccc2Cl)nc2ccccc21 (stereo not drawn),"inconclusive: 14.1 µM [activator, single point]"
18,COc1ccc(COc2ccc3c(C)cc(=O)oc3c2)cc1,"inconclusive: 5.01 µM [activator, single point]"
19,COc1ccc(-c2nn(-c3ccccc3)cc2/C=N/n2cnnc2)cc1OC,inactive
20,O=C(Nc1ccc(Br)cc1)c1cc(-c2ccc3c(c2)OCO3)on1,"inconclusive: 28.2 µM [activator, single point]"
21,CN(Cc1cccs1)C(=O)c1ccc(S(=O)(=O)NCc2ccco2)cc1,"inconclusive: 1.26 µM [activator, single point]"
22,Cc1ccc(/C=N/NC(=O)c2cccc(S(=O)(=O)Nc3cccc(Cl)c3)c2)o1,inactive

row,SMILES,Potency
1,Cc1cccc(NC(=O)c2ccc(F)c(S(=O)(=O)NCc3ccco3)c2)c1,"inconclusive: 2.82 µM [activator, single point]"
2,O=C1c2ccccc2C(Nc2ccc3nc(-c4cccnc4)[nH]c3c2)N1Cc1ccco1 (stereo not drawn),"inconclusive: 7.08 µM [activator, single point]"
3,COc1ccccc1NC(=O)CSc1nc(O)cc(=O)[nH]1,"inconclusive: 28.2 µM [activator, single point]"
4,COc1ccc(S(=O)(=O)NC(N)=NCCc2ccccc2)cc1,"inconclusive: 3.55 µM [activator, partial curve, poor fit]"
5,CCCCOC(=O)N1CCOCCOCCOCC1,"inconclusive: 28.2 µM [activator, single point]"
6,COc1ccccc1Cc1nc(-c2cccnc2)no1,"inconclusive: 5.01 µM [activator, single point]"
7,CC1CN(C(=O)CCC(=O)N2CCN(c3cccc(C(F)(F)F)c3)CC2)c2ccccc2O1 (stereo not drawn),"inconclusive: 3.55 µM [activator, single point]"
8,Cc1cccc(N(CC(=O)NC2CCCC2)C(=O)CS(=O)CC(=O)Nc2ccc3c(c2)OCO3)c1C (stereo not drawn),inactive
9,CCn1cc(S(=O)(=O)N2CCc3ccccc3C2)cn1,"inconclusive: 3.98 µM [activator, single point]"
10,O=C(O)CC(NC(=O)/C(=C/c1ccccc1)NC(=O)c1ccccc1)c1ccccc1 (stereo not drawn),"inconclusive: 25.1 µM [activator, single point]"
11,COC(=O)c1ccc(NC(=S)N2CCN(Cc3ccccc3)CC2)cc1,inactive
12,Cc1cc(C(=O)Nc2c(F)cc(F)cc2Br)no1,"inconclusive: 2 µM [activator, full curve, poor fit]"
13,NC(=O)c1c(NC(=O)C2COc3ccccc3O2)sc2c1CCN(Cc1ccccc1)C2 (stereo not drawn),inactive
14,CSCC[C@H](NC(=O)OC(C)(C)C)C(=O)NCC1CCC(C(=O)N[C@@H](Cc2ccccc2)C(=O)O)CC1 (stereo partly drawn),"inconclusive: 28.2 µM [activator, single point]"
15,CN(C)CCCN=c1cc(-c2ccccc2)oc2ccc(Cl)cc12,inactive
16,Cc1cccc(N/C(N)=N/c2nc(C)c(Cc3ccccc3)c(=O)[nH]2)c1,"inconclusive: 11.2 µM [activator, single point]"
17,COc1cc(/C=C/c2ccc3cccc(O)c3n2)cc(OC)c1OC,inactive
18,O=C(Nc1nnc(-c2ccccn2)o1)c1cccc(Cl)c1,inactive
19,CCc1ccc(-c2cc(C)no2)cc1S(=O)(=O)NC(C)Cc1ccco1 (stereo not drawn),"inconclusive: 0.501 µM [activator, full curve, poor fit]"
20,CC1CC(C)CN(C(=S)NC2CCCCC2)C1 (stereo not drawn),"inconclusive: 28.2 µM [activator, single point]"
21,COc1ccc(CCNC(=O)c2cccs2)cc1OC,"inconclusive: 22.4 µM [activator, single point]"

# A run of entries from further up:
row,SMILES,Potency
10,O=C(O)CC(NC(=O)/C(=C/c1ccccc1)NC(=O)c1ccccc1)c1ccccc1 (stereo not drawn),"inconclusive: 25.1 µM [activator, single point]"
11,COC(=O)c1ccc(NC(=S)N2CCN(Cc3ccccc3)CC2)cc1,inactive
